Binding data for two molecules are collected here from article PMC12578386.

Sequences of proteins named here, by UniProt entry; tags and fusion partners are left off.
UniProt P17182: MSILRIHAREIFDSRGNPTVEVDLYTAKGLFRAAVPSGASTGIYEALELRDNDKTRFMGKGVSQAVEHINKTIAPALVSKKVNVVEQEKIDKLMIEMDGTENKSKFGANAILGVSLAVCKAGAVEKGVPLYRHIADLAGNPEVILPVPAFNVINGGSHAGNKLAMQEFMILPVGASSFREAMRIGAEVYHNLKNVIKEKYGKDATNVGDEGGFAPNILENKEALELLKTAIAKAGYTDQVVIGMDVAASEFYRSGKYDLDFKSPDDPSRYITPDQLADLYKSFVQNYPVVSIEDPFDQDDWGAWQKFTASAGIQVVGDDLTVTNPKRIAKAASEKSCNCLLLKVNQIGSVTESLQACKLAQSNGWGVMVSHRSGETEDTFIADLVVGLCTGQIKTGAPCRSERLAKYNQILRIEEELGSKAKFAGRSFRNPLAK
UniProt Q99JI6: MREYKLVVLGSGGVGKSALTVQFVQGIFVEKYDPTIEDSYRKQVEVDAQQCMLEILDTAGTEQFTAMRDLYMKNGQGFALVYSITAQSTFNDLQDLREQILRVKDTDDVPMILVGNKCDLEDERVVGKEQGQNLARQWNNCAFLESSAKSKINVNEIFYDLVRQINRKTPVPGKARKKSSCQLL

These are yes or no findings as the source states them, for the method shown. Binding seen in cells or lysates may run through a third protein. Some binding calls cover weakened binding; strength is not graded here.

Assay [1] addresses T1, interferon-induced transmembrane protein 2 (IFITM2), endogenous (mouse (endogenous in naive CD4+ T cells)) (UniProt Q99J93).
T1 sequence: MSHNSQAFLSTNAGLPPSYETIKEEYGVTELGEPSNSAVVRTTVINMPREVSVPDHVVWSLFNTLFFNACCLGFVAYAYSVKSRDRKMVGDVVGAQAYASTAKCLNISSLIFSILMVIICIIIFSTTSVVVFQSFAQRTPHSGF
Description: co-IP; naive CD4+ T cells transfected with control siRNA or Ifitm2 siRNA, with or without NDMC (500 ng/mL), under Treg differentiation conditions; IP of IFITM2, blot for RAP1B.

Assay [2] deals with enolase 1 (ENO1), endogenous, on the surface of CD4+ T cells (mouse (endogenous in naive CD4+ T cells)) (UniProt P17182). Description: co-IP; IP of IFITM2 and ENO1 (Supplemental Figure 8G); cells and conditions not shown.

Consider “RAS-associated protein 1B (RAP1B), endogenous (from UniProt Q99JI6 1-184)”, for which the binding result in assay [1] was “binds”.

B1: interferon-induced transmembrane protein 2 (IFITM2), endogenous (protein, UniProt Q99J93 1-144)
chain: MSHNSQAFLSTNAGLPPSYETIKEEYGVTELGEPSNSAVVRTTVINMPREVSVPDHVVWSLFNTLFFNACCLGFVAYAYSVKSRDRKMVGDVVGAQAYASTAKCLNISSLIFSILMVIICIIIFSTTSVVVFQSFAQRTPHSGF
In the case of B1, in assay [2], the binding entry is reported as “binds”.
